Reference: article PMC6805484
Results are given in words; binding and its absence hold for the method and conditions named. Binding seen in cells or lysates may run through a third protein. Some entries that bind do so weakly or less than the wild type. For some of these results: Where a sequence is shown, tags or fusion partners need not be part of it. Values belong to the binder of their own block, whether it stands above or below them.

By UniProt entry, the sequences of proteins in these tests, tags left out.
UniProt Q15717: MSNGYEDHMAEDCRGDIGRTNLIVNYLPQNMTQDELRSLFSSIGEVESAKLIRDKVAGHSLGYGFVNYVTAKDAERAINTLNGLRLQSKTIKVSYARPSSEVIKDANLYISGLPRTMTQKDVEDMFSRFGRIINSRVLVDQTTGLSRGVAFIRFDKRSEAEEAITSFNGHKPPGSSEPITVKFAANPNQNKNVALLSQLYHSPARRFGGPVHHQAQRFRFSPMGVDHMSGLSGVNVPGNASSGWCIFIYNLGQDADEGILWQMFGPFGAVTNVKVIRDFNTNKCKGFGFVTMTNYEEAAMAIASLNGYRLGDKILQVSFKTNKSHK
UniProt P11940: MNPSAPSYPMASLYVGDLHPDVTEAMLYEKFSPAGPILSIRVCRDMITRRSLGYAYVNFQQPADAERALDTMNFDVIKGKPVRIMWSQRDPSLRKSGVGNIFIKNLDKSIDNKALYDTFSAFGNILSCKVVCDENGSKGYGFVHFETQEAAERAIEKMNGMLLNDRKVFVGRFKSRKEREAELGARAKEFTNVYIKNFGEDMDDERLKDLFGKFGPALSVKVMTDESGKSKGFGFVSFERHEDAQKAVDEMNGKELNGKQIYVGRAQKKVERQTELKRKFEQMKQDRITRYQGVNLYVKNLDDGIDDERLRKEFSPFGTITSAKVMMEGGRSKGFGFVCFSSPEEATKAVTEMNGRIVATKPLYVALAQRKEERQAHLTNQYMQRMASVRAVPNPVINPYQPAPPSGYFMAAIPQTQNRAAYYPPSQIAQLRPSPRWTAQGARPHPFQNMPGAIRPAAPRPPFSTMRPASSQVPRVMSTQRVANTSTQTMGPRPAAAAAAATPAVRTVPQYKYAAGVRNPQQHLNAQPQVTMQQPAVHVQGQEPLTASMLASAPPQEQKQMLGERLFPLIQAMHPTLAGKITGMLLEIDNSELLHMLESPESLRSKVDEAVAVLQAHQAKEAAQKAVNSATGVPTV
UniProt Q9NZI8: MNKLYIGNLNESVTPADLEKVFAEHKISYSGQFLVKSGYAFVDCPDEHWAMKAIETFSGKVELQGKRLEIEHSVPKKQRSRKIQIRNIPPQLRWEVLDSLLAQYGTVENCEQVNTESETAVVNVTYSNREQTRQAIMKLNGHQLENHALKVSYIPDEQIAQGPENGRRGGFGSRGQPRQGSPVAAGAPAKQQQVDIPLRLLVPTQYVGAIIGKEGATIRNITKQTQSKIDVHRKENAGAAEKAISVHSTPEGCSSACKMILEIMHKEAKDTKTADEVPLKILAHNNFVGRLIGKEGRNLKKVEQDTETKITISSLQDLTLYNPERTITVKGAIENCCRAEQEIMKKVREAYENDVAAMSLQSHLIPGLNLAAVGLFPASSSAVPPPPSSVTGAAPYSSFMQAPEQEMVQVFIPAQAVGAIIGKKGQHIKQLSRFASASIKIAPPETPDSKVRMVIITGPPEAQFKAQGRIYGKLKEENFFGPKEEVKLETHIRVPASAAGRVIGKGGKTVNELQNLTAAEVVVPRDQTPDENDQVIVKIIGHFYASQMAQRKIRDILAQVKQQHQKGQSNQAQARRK

Legend:
[1] = molecular target: T1, GFP-MKRN1^wt (Makorin Ring Finger Protein 1, wild type, N-terminally GFP-tagged) (human), Q9UHC7; test: co-IP; GFP-trap agarose beads with cleared lysates of HEK293T cells transiently expressing a GFP-tagged bait or GFP (empty vector); mRIPA buffer, 1 h at 4 °C, five washes; Western blot for the endogenous partner; conditions: remark: other sources report otherwise
T1 chain: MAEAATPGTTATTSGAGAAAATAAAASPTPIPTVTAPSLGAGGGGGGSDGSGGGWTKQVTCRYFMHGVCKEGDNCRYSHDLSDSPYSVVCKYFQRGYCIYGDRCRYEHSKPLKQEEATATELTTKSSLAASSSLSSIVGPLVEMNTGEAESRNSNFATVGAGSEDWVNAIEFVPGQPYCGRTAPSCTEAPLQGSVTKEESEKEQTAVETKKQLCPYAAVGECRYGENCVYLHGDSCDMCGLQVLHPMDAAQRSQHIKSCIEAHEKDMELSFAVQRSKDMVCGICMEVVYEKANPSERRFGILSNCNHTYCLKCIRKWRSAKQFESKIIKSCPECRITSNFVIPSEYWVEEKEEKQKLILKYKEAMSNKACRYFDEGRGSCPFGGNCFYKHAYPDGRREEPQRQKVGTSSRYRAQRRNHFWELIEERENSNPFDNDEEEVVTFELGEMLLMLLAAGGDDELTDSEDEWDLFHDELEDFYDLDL

GFP-tagged ELAVL1 [2] = molecular target: GFP-tagged ELAVL1 (UniProt Q15717); test: co-IP; as a2, the enriched proteins incubated with 0.5 U/μl RNase A and 20 U/μl RNase T1 for 30 min at 4 °C after the first two washes
[3] = molecular target: GFP-tagged PABPC1 (human) (UniProt P11940); test: as above
GFP-tagged IGF2BP1 [4] = molecular target: GFP-tagged IGF2BP1 (UniProt Q9NZI8); test: as above
GFP-tagged ELAVL1 [5] = molecular target: GFP-tagged ELAVL1 (UniProt Q15717); test: co-IP; GFP-trap agarose beads with cleared lysates of HEK293T cells transiently expressing a GFP-tagged bait or GFP (empty vector); mRIPA buffer, 1 h at 4 °C, five washes; Western blot for the endogenous partner
[6] = molecular target: GFP-tagged PABPC1 (human) (UniProt P11940); test: as above
GFP-tagged IGF2BP1 [7] = molecular target: GFP-tagged IGF2BP1 (UniProt Q9NZI8); test: as above

binding [1]: no binding
B1: ZNF598 (endogenous), Q86UK7 1-904 (protein)
chain: MAAAGGAEGRRAALEAAAAAAPERGGGSCVLCCGDLEATALGRCDHPVCYRCSTKMRVLCEQRYCAVCREELRQVVFGKKLPAFATIPIHQLQHEKKYDIYFADGKVYALYRQLLQHECPRCPELPPFSLFGDLEQHMRRQHELFCCRLCLQHLQIFTYERKWYSRKDLARHRMQGDPDDTSHRGHPLCKFCDERYLDNDELLKHLRRDHYFCHFCDSDGAQDYYSDYAYLREHFREKHFLCEEGRCSTEQFTHAFRTEIDLKAHRTACHSRSRAEARQNRHIDLQFSYAPRHSRRNEGVVGGEDYEEVDRYSRQGRVARAGTRGAQQSRRGSWRYKREEEDREVAAAVRASVAAQQQEEARRSEDQEEGGRPKKEEAAARGPEDPRGPRRSPRTQGEGPGPKETSTNGPVSQEAFSVTGPAAPGCVGVPGALPPPSPKLKDEDFPSLSASTSSSCSTAATPGPVGLALPYAIPARGRSAFQEEDFPALVSSVPKPGTAPTSLVSAWNSSSSSKKVAQPPLSAQATGSGQPTRKAGKGSRGGRKGGPPFTQEEEEDGGPALQELLSTRPTGSVSSTLGLASIQPSKVGKKKKVGSEKPGTTLPQPPPATCPPGALQAPEAPASRAEGPVAVVVNGHTEGPAPARSAPKEPPGLPRPLGSFPCPTPQEDFPALGGPCPPRMPPPPGFSAVVLLKGTPPPPPPGLVPPISKPPPGFSGLLPSPHPACVPSPATTTTTKAPRLLPAPRAYLVPENFRERNLQLIQSIRDFLQSDEARFSEFKSHSGEFRQGLISAAQYYKSCRDLLGENFQKVFNELLVLLPDTAKQQELLSAHTDFCNREKPLSTKSKKNKKSAWQATTQQAGLDCRVCPTCQQVLAHGDASSHQALHAARDDDFPSLQAIARIIT

binding (GFP-tagged ELAVL1 [2]): binds
binding [3]: binds
binding (GFP-tagged IGF2BP1 [4]): binds
binding (GFP-tagged ELAVL1 [5]): binds
binding [6]: binds
binding (GFP-tagged IGF2BP1 [7]): binds
B2: MKRN1 (endogenous) (protein, UniProt Q9UHC7 1-482)
chain: T1 chain
